Measurements as given in PMC11125772, “A Self-Assembling Pfs230D1-Ferritin Nanoparticle Vaccine Has Potent and Durable Malaria Transmission-Reducing Activity” (Vaccines, 2024).
No constants are given. Whether binding was seen depends on the method and setting.

Amino acid sequences for entries named in this document (tags omitted). Residues count along the entry.
UniProt P68874, residues 542-736: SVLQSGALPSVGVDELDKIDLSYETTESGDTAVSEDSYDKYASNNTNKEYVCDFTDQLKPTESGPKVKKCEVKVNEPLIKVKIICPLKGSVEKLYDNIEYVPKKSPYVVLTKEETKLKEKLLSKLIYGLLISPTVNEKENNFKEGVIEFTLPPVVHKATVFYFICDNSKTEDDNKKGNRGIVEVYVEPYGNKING

Assays:
[1] = target: Pfs230D1 (Plasmodium falciparum 3D7) (UniProt P68874); test: SEC-SAXS; SIBYLS beamline 12.3.1; Shodex KW-804 column for Pfs230D1-ferritin, Shodex KW-802.5 column for Pfs230D1; molecular weight from SAXS (ATSAS); both purified
[2] = target: Pfs230D1 (Plasmodium falciparum 3D7) (UniProt P68874); test: SEC; Superdex 75 Increase 10/300 GL column, PBS; both purified

## Pfs230D1 (from UniProt P68874 542-736) (domain or fragment)
[1]
  binding: no binding
[2]
  binding: no binding
